Results: the supplement of paper PMC4604168 (melanoma cell lines)
This is one part of the list. Many values rest on one well or one pass, so single values are uncertain.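 Imaging used 1,536-well plates; nuclei positive for cleaved PARP by antibody were divided by total DNA-stained nuclei to yield the apoptosis fraction. Doses for screening kept most cells viable, and cell lines differ markedly in resting and induced cleaved-PARP levels.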

test system: COLO792; assay: cleaved PARP positive nuclei fraction relative to DMSO control; melanoma cells; higher = more apoptosis; details: library dose: low library concentration; 72 h

Row | Compound | cleaved PARP positive nuclei fraction
1 | Cn1c(=O)n(-c2ccc(C(C)(C)C#N)cc2)c2c3cc(-c4cnc5ccccc5c4)ccc3ncc21 + CN1CCN(c2ccc3nc(-c4c(N)c5c(F)cccc5[nH]c4=O)[nH]c3c2)CC1 [Dovitinib] (first compound 0.004 µM, partner dose 0.1 µM) | 83.1%
2 | O=C(O)c1ccc2c(c1)nc(Nc1cccc(Cl)c1)c1ccncc12 + COc1ccc(Cl)c(Nc2nc3ccccc3nc2NS(=O)(=O)c2cccc(NC(=O)C(C)(C)N)c2)c1 [XL147] (first compound 0.4 µM, partner dose 0.8 µM) | 69.8%
3 | CNC(=O)c1cc(Oc2ccc(NC(=O)Nc3ccc(Cl)c(C(F)(F)F)c3)cc2)ccn1 [sorafenib] + OCc1c[nH]c2ccccc12 [Indole-3-carbinol] (first compound 0.4 µM, partner dose 0.8 µM) | 44.1%
4 | CO[C@H]1C[C@@H]2CC[C@@H](C)[C@@](O)(O2)C(=O)C(=O)N2CCCC[C@H]2C(=O)O[C@H]([C@H](C)C[C@@H]2CC[C@@H](OCCO)[C@H](OC)C2)CC(=O)[C@H](C)/C=C(\C)[C@@H](O)[C@@H](OC)C(=O)[C@H](C)C[C@H](C)/C=C/C=C/C=C/1C [everolimus] + O=C(O)c1ccc2c(c1)nc(Nc1cccc(Cl)c1)c1ccncc12 [CX4945] (first compound 0.02 µM, partner dose 0.4 µM) | 268%
5 | Cn1c(=O)n(-c2ccc(C(C)(C)C#N)cc2)c2c3cc(-c4cnc5ccccc5c4)ccc3ncc21 + O=C(O)c1ccc2c(c1)nc(Nc1cccc(Cl)c1)c1ccncc12 [CX4945] (first compound 0.004 µM, partner dose 0.4 µM) | 106%
6 | CNC(=O)c1cc(Oc2ccc(NC(=O)Nc3ccc(Cl)c(C(F)(F)F)c3)cc2)ccn1 [sorafenib] + Cn1c(Nc2ccc(C(F)(F)F)cc2)nc2cc(Oc3ccnc(-c4ncc(C(F)(F)F)[nH]4)c3)ccc21 [CHIR265] (first compound 0.4 µM, partner dose 0.08 µM) | 145%
7 | Cc1cc(Nc2cc(N3CCN(C)CC3)nc(/C=C/c3ccccc3)n2)n[nH]1 + NC1(c2ccc(-c3nc4ccn5c(=O)[nH]nc5c4cc3-c3ccccc3)cc2)CCC1 [MK2206] (first compound 0.04 µM, partner dose 0.4 µM) | 165%
8 | CC(C)C[C@H](NC(=O)[C@H](Cc1ccccc1)NC(=O)c1cnccn1)B(O)O [Bortezomib] + CS(=O)(=O)CCNCc1ccc(-c2ccc3ncnc(Nc4ccc(OCc5cccc(F)c5)c(Cl)c4)c3c2)o1 [lapatinib] (first compound 0.001 µM, partner dose 0.8 µM) | 38.9%
9 | CO[C@H]1C[C@@H]2CC[C@@H](C)[C@@](O)(O2)C(=O)C(=O)N2CCCC[C@H]2C(=O)O[C@H]([C@H](C)C[C@@H]2CC[C@@H](OCCO)[C@H](OC)C2)CC(=O)[C@H](C)/C=C(\C)[C@@H](O)[C@@H](OC)C(=O)[C@H](C)C[C@H](C)/C=C/C=C/C=C/1C [everolimus] + Cn1nnc2c(C(N)=O)ncn2c1=O [temozolomide] (first compound 0.02 µM, partner dose 2 µM) | 153%
10 | O=C(O)[C@@H]1[O][Sb](=[O])([O][Sb]2(=[O])[O][C@H]([C@H](O)CO)[C@H](O)[C@H](C(=O)O)[O]2)[O][C@H]([C@H](O)CO)[C@@H]1O (some centres not stated) [stibogluconate] + C#Cc1cccc(Nc2ncnc3cc(OCCOC)c(OCCOC)cc23)c1 [erlotinib] (first compound 2 µM, partner dose 0.8 µM) | 82.2%
11 | C=C(c1ccc(C(=O)O)cc1)c1cc2c(cc1C)C(C)(C)CCC2(C)C [Bexarotene] + Nc1nc(F)nc2c1ncn2[C@@H]1O[C@H](CO)[C@@H](O)[C@@H]1O [fludarabine] (first compound 2 µM, partner dose 0.2 µM) | 167%
12 | CNC(=O)c1cc(Oc2ccc(NC(=O)Nc3ccc(Cl)c(C(F)(F)F)c3)cc2)ccn1 [sorafenib] + C=CCNC1=C2C[C@@H](C)C[C@H](OC)[C@H](O)[C@@H](C)/C=C(\C)[C@H](OC(N)=O)[C@@H](OC)/C=C\C=C(/C)C(=O)NC(=CC1=O)C2=O [Tanespimycin] (first compound 0.4 µM, partner dose 0.002 µM) | 188%

Nos. 5 through 7, reprinted for reference:
Row | Compound | cleaved PARP positive nuclei fraction
5 | Cn1c(=O)n(-c2ccc(C(C)(C)C#N)cc2)c2c3cc(-c4cnc5ccccc5c4)ccc3ncc21 + O=C(O)c1ccc2c(c1)nc(Nc1cccc(Cl)c1)c1ccncc12 [CX4945] (first compound 0.004 µM, partner dose 0.4 µM) | 106%
6 | CNC(=O)c1cc(Oc2ccc(NC(=O)Nc3ccc(Cl)c(C(F)(F)F)c3)cc2)ccn1 [sorafenib] + Cn1c(Nc2ccc(C(F)(F)F)cc2)nc2cc(Oc3ccnc(-c4ncc(C(F)(F)F)[nH]4)c3)ccc21 [CHIR265] (first compound 0.4 µM, partner dose 0.08 µM) | 145%
7 | Cc1cc(Nc2cc(N3CCN(C)CC3)nc(/C=C/c3ccccc3)n2)n[nH]1 + NC1(c2ccc(-c3nc4ccn5c(=O)[nH]nc5c4cc3-c3ccccc3)cc2)CCC1 [MK2206] (first compound 0.04 µM, partner dose 0.4 µM) | 165%
